No constants are given. Whether binding was seen depends on the method and setting. Binding seen in cells or lysates may run through a third protein. Some results given as binding are weak or reduced against the parent protein; the word gives no strength. Blank lines part the entries; values can stand above or below the substance they belong to.
Tests used:
[1] = biological target: T1, SIK K56R, catalytically inactive mutant, transfected in HEK293T cells (human) (UniProt P57059); experiment: co-IP; HEK293T cells transfected with the three Par3 isoforms and SIK K56R; immunoprecipitation with an in-house SIK antibody; blot for Par3; non-related antibody as control
T1 sequence: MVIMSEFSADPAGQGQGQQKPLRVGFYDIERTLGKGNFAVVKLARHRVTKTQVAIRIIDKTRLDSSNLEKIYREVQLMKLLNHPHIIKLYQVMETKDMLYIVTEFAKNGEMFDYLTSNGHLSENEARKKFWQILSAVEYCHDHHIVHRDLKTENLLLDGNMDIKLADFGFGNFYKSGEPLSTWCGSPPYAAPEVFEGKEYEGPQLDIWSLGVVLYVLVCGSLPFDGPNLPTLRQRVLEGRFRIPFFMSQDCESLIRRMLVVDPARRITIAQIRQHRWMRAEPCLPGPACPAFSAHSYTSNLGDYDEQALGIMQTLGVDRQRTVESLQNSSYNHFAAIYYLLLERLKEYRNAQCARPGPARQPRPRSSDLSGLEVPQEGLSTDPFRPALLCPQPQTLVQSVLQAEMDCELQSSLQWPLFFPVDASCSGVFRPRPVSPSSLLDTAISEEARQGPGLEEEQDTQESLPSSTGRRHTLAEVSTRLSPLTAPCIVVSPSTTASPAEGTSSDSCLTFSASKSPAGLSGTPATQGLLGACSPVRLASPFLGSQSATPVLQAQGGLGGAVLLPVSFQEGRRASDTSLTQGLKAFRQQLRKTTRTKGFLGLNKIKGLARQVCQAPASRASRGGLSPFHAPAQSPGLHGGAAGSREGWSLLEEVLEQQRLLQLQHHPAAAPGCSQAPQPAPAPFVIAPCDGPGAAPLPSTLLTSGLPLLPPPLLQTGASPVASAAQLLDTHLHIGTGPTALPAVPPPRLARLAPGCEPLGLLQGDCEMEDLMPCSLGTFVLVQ

The chains behind the UniProt entries cited, without tags or fusion partners.
UniProt Q99NH2: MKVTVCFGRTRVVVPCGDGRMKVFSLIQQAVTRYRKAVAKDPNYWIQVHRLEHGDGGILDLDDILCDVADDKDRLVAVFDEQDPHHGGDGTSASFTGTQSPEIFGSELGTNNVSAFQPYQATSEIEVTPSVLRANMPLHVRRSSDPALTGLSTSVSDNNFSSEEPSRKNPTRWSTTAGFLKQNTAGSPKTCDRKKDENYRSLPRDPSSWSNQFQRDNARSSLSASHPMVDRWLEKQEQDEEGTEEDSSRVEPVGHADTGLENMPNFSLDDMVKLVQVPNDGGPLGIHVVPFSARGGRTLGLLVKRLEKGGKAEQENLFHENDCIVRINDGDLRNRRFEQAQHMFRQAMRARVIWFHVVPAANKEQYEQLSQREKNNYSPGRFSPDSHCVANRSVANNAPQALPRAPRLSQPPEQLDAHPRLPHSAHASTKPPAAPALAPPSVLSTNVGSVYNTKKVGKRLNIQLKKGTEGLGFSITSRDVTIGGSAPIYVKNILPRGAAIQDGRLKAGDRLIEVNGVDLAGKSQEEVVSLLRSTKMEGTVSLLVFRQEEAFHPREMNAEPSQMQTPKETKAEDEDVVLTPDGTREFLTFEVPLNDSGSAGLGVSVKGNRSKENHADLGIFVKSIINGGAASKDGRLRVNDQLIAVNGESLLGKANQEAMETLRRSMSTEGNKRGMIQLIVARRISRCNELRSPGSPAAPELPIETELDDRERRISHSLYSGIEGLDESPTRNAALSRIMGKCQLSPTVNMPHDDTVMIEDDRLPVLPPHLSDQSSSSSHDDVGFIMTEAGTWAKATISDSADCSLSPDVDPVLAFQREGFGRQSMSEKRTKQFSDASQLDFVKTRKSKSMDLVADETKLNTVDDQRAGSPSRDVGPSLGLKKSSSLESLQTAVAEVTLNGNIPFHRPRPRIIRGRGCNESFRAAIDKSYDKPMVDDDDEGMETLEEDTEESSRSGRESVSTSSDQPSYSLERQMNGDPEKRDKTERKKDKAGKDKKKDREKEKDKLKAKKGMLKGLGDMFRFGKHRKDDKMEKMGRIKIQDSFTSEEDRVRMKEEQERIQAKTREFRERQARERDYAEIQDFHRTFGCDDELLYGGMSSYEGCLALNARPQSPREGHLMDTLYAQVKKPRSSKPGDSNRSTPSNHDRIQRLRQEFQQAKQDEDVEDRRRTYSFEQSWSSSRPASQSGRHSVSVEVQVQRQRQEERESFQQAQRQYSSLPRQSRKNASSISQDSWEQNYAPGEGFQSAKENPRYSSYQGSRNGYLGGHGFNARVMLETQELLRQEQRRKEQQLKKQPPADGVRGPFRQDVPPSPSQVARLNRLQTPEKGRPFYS

[2] = biological target: salt-inducible kinase 1 (SIK), wild type, transfected in NMuMG cells (human) (UniProt P57059); experiment: co-IP; NMuMG cells transfected with WT or K56R SIK; immunoprecipitation with a SIK-specific antibody; blot for endogenous Par3; cells treated with 5 ng/ml TGFβ or vehicle overnight
[3] = biological target: T2, SIK K56R, kinase-inactive mutant, transfected in NMuMG cells (human) (UniProt P57059); experiment: as above
T2 sequence: T1 sequence

[4] = biological target: Par3 180 kD isoform (mouse), transfected in HEK293T cells (mouse) (UniProt Q99NH2); experiment: co-IP; HEK293T cells transfected with the three Par3 isoforms, with or without co-expressed SIK; immunoprecipitation of Par3, Protein-G Dynabeads; blot for SIK; rabbit IgG as control
[5] = biological target: endogenous Par3 (180 kD isoform) of NMuMG cells (mouse (endogenous in NMuMG)) (UniProt Q99NH2); experiment: co-IP; NMuMG cells transfected with WT or K56R SIK; immunoprecipitation with a Par3-specific antibody (endogenous Par3); blot for SIK; cells treated with 5 ng/ml TGFβ or vehicle overnight

Substance: endogenous SIK of HEK293T cells (from UniProt P57059 1-783) (enzyme)
binding [4]: binds

Substance: salt-inducible kinase 1 (SIK), wild type, transfected in HEK293T cells (from UniProt P57059 1-783) (enzyme)
binding [4]: binds

Substance: salt-inducible kinase 1 (SIK), wild type, transfected in NMuMG cells (from UniProt P57059 1-783) (enzyme)
binding [5]: binds weakly

Next, values leading:

binding [1]: binds
Substance: Par3 180 kD isoform (mouse), transfected in HEK293T cells (from UniProt Q99NH2 1-1333)

binding [2]: binds | binding [3]: binds
Substance: endogenous Par3 (180 kD isoform) of NMuMG cells (from UniProt Q99NH2 1-1333)
